Laboratory results: patent US8476434B2, “Protein kinase modulators and method of use” (Amgen Inc., priority 2004, dated 2013)
Some of these results come from one statement about several compounds together.

By UniProt entry, the sequences of proteins in these tests, tags left out. Residues count along the entry.
UniProt Q02763, 23-1124: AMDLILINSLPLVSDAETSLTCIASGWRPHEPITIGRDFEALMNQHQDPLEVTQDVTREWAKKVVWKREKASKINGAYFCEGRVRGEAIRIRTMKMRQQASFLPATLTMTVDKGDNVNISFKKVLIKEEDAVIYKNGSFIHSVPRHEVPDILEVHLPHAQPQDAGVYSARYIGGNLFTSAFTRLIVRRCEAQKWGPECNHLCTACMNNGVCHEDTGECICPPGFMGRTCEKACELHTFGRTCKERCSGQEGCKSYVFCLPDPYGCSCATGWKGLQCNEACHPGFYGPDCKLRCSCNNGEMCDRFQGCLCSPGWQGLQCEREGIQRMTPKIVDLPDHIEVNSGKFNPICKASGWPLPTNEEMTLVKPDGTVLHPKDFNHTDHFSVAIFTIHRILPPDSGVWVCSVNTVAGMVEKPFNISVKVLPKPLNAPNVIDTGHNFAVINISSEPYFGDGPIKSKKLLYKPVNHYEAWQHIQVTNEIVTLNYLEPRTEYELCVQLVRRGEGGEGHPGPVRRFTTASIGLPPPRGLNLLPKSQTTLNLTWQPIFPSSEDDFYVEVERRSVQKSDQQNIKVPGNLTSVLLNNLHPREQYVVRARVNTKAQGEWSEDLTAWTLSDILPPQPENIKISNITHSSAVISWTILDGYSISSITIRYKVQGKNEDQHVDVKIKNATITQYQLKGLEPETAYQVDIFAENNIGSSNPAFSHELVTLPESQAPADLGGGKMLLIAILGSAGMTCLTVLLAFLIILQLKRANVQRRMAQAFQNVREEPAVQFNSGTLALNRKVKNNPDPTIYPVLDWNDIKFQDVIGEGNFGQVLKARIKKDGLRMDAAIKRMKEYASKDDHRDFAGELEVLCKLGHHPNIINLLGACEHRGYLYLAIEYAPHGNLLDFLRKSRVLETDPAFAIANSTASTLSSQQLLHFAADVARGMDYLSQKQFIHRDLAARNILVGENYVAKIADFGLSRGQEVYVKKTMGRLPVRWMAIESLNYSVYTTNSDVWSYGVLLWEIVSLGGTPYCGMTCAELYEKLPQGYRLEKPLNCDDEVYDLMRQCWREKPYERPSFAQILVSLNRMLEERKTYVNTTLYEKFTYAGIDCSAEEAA
UniProt Q96GD4, whole entry: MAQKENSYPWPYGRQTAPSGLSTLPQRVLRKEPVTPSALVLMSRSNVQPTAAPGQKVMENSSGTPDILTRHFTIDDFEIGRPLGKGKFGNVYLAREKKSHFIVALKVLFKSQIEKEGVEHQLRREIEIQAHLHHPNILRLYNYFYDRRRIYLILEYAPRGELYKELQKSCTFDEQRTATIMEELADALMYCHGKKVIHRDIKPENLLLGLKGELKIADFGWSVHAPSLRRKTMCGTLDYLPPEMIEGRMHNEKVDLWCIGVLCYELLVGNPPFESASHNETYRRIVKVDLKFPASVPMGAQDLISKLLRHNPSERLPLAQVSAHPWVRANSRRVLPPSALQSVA

Key:
Assay type in all cases: biochemical
Tie-2 kinase enzyme = Tie-2 kinase enzyme (Homo sapiens, UniProt Q02763); assay: Tie-2 Homogenous Time Resolved Fluorescent (HTRF) kinase assay; conditions: read-out: IC50's for the inhibition of Tie-2 as measured by the HTRF assay
AuroraA-TPX2 KD GST = target: T1, AuroraA-TPX2 KD GST (Homo sapiens, UniProt O14965); assay: AuroraA-TPX2 Homogeneous Time Resolved Fluorescent (HTRF) kinase assay; conditions: read-out: activity in the Aurora kinase A HTRF assay
T1 construct: AuroraA-TPX2 KD GST; GST
T1 sequence (O14965 133-383 limits assumed): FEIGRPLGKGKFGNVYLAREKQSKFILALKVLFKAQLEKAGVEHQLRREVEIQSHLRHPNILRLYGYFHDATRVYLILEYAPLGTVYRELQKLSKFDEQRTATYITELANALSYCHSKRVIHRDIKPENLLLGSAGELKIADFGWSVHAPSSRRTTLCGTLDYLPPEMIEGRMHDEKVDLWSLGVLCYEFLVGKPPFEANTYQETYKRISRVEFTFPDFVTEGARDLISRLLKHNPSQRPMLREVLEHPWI
T1 sequence (Q9ULW0 1-43 partner limits assumed): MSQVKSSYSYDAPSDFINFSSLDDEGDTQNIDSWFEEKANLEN

AuroraB FL His = target: T2, AuroraB FL His (Homo sapiens, UniProt Q96GD4); assay: AuroraB Homogeneous Time Resolved Fluorescent (HTRF) kinase assay; conditions: read-out: activity in the Aurora kinase B HTRF assay
T2 construct: AuroraB FL His; His

Structure (SMILES) | IC50 (Tie-2 kinase enzyme) [µM] | IC50 (AuroraA-TPX2 KD GST) [µM] | IC50 (AuroraB FL His) [µM]
CCn1nc(C)cc1C(=O)Nc1ccc(Oc2ncccc2-c2ccnc(NC)n2)c(C)c1 [Example 1004, 1-ethyl-3-methyl-N-(3-methyl-4-((3-(2-(methylamino)-4-pyrimidinyl)-2-pyridinyl)oxy)phenyl)-1H-pyrazole-5-carboxamide] | < 5 | < 10 | < 10
CNc1nccc(-c2cccnc2Oc2ccc(NC(=O)c3csc4ccccc34)cc2C)n1 [Example 1005, N-(3-methyl-4-((3-(2-(methylamino)-4-pyrimidinyl)-2-pyridinyl)oxy)phenyl)-1-benzothiophene-3-carboxamide] | < 5 | < 10 | < 10
CCc1cccc(NC(=O)Nc2ccc(Oc3ncccc3-c3ccnc(NC)n3)cc2)c1 [Example 1008, N-(3-ethylphenyl)-N′-(4-((3-(2-(methylamino)-4-pyrimidinyl)-2-pyridinyl)oxy)phenyl)urea] | < 5 | < 10 | < 10
CNc1nccc(-c2cccnc2Oc2ccc(NC(=O)Nc3ccc(C)c(F)c3)cc2Cl)n1 [Example 1009, N-(3-chloro-4-((3-(2-(methylamino)-4-pyrimidinyl)-2-pyridinyl)oxy)phenyl)-N′-(3-fluoro-4-methylphenyl)urea] | < 5 | < 10 | < 10
CNc1nccc(-c2cccnc2Oc2ccc(NC(=O)C(=O)c3ccccc3)cc2C)n1 [Example 1010, N-(3-methyl-4-((3-(2-(methylamino)-4-pyrimidinyl)-2-pyridinyl)oxy)phenyl)-2-oxo-2-phenylacetamide] | < 5 | < 10 | < 10
CNc1nccc(-c2cccnc2Oc2ccc(NC(=O)Nc3ccc(C(C)(C)C)cc3)cc2)n1 [Example 1011, N-(4-(1,1-dimethylethyl)phenyl)-N′-(4-((3-(2-(methylamino)-4-pyrimidinyl)-2-pyridinyl)oxy)phenyl)urea] | < 5 | < 10 | < 10
CCOc1ccc(NC(=O)Nc2ccc(Oc3ncccc3-c3ccnc(NC)n3)cc2)cc1 [Example 1012, N-(4-(ethyloxy)phenyl)-N′-(4-((3-(2-(methylamino)-4-pyrimidinyl)-2-pyridinyl)oxy)phenyl)urea] | < 5 | < 10 | < 10
CNc1nccc(-c2cccnc2Oc2ccc(NC(=O)Nc3cc(Cl)c(Cl)cc3Cl)cc2)n1 [Example 1013, N-(4-((3-(2-(methylamino)-4-pyrimidinyl)-2-pyridinyl)oxy)phenyl)-N′-(2,4,5-trichlorophenyl)urea] | < 5 | < 10 | < 10
CNc1nccc(-c2cccnc2Oc2ccc(NC(=O)Nc3ccc4c(c3)OCCO4)cc2)n1 [Example 1014, N-(2,3-dihydro-1,4-benzodioxin-6-yl)-N′-(4-((3-(2-(methylamino)-4-pyrimidinyl)-2-pyridinyl)oxy)phenyl)urea] | < 5 | < 10 | < 10
CNc1nccc(-c2cccnc2Oc2ccc(NC(=O)c3ccccc3Oc3ccccc3)cc2C)n1 [Example 1015, N-(3-methyl-4-((3-(2-(methylamino)-4-pyrimidinyl)-2-pyridinyl)oxy)phenyl)-2-(phenyloxy)benzamide] | < 5 | < 10 | < 10
CNc1nccc(-c2cccnc2Oc2ccc(NC(=O)Nc3ccc(OC)c(F)c3)cc2)n1 [Example 1017, N-(3-fluoro-4-(methyloxy)phenyl)-N′-(4-((3-(2-(methylamino)-4-pyrimidinyl)-2-pyridinyl)oxy)phenyl)urea] | < 5 | < 10 | < 10
CNc1nccc(-c2cccnc2Oc2ccc(NC(=O)Nc3ccc(OC)c(F)c3)cc2C)n1 [Example 1018, N-(3-fluoro-4-(methyloxy)phenyl)-N′-(3-methyl-4-((3-(2-(methylamino)-4-pyrimidinyl)-2-pyridinyl)oxy)phenyl)urea] | < 5 | < 10 | < 10
Cc1ccc(NC(=O)c2ccc(Cl)c(OC(F)(F)F)c2)cc1Oc1ncccc1-c1ccncn1 [Example 1019, 4-chloro-N-(4-methyl-3-((3-(4-pyrimidinyl)-2-pyridinyl)oxy)phenyl)-3-((trifluoromethyl)oxy) benzamide] | < 5 | < 10 | < 10
Cc1ccc(NC(=O)c2cccc(C(F)(F)F)c2)cc1Oc1ncccc1-c1ccncn1 [Example 1020, N-(4-methyl-3-((3-(4-pyrimidinyl)-2-pyridinyl)oxy)phenyl)-3-(trifluoromethyl) benzamide] | < 5 | < 10 | < 10
Cc1ccc(NC(=O)CC2CCCCC2)cc1Oc1ncccc1-c1ccncn1 [Example 1022, 2-cyclohexyl-N-(4-methyl-3-((3-(4-pyrimidinyl)-2-pyridinyl)oxy)phenyl)acet-amide] | < 5 | < 10 | < 10
CCCCCC(=O)Nc1ccc(C)c(Oc2ncccc2-c2ccncn2)c1 [Example 1023, N-(4-methyl-3-((3-(4-pyrimidinyl)-2-pyridinyl)oxy)phenyl) hexanamide] | < 5 | < 10 | < 10
CNc1nccc(-c2cccnc2Oc2ccc(NC(=O)c3cccc(-c4ccsc4)c3)cc2C)n1 [Example 1024, N-(3-methyl-4-((3-(2-(methylamino)-4-pyrimidinyl)-2-pyridinyl)oxy)phenyl)-3-(3-thienyl)benzamide] | < 5 | < 10 | < 10
CNc1nccc(-c2cccnc2Oc2ccc(NC(=O)Nc3ccc(Br)c(F)c3)cc2)n1 [Example 1027, N-(4-bromo-3-fluorophenyl)-N′-(4-((3-(2-(methylamino)-4-pyrimidinyl)-2-pyridinyl)oxy)phenyl)urea] | < 5 | < 10 | < 10
CNc1nccc(-c2cccnc2Oc2ccc(NC(=O)Nc3ccc(Br)c(F)c3)cc2C)n1 [Example 1028, N-(4-bromo-3-fluorophenyl)-N′-(3-methyl-4-((3-(2-(methylamino)-4-pyrimidinyl)-2-pyridinyl)oxy)phenyl)urea] | < 5 | < 10 | < 10
CNc1nccc(-c2cccnc2Oc2ccc(NC(=O)Nc3ccc(OCCCN4CCN(C)CC4)c(F)c3)cc2)n1 [Example 1029, N-(3-fluoro-4-((3-(4-methyl-1-piperazinyl)propyl)oxy)phenyl)-N′-(4-((3-(2-(methylamino)-4-pyrimidinyl)-2-pyridinyl)oxy)phenyl)urea] | < 5 | < 10 | < 10
CNc1nccc(-c2cccnc2Oc2ccc(NC(=O)c3cccc(N4CCCC4)c3)cc2C)n1 [Example 1030, N-(3-methyl-4-((3-(2-(methylamino)-4-pyrimidinyl)-2-pyridinyl)oxy)phenyl)-3-(1-pyrrolidinyl)benzamide] | < 5 | < 10 | < 10
CNc1nccc(-c2cccnc2Oc2ccc(NC(=O)c3cccc(-c4cccs4)c3)cc2C)n1 [Example 1031, N-(3-methyl-4-((3-(2-(methylamino)-4-pyrimidinyl)-2-pyridinyl)oxy)phenyl)-3-(2-thienyl)benzamide] | < 5 | < 10 | < 10
CNc1nccc(-c2cccnc2Oc2ccc(NC(=O)C3CN(Cc4ccccc4)CCO3)cc2C)n1 (stereo not drawn) [Example 1033, N-(3-methyl-4-((3-(2-(methylamino)-4-pyrimidinyl)-2-pyridinyl)oxy)phenyl)-4-(phenylmethyl)-2-morpholinecarboxamide] | < 5 | < 10 | < 10
CNc1nccc(-c2cccnc2Oc2ccc(NC(=O)c3cc(F)cc(C(F)(F)F)c3)cc2C)n1 [Example 1034, 3-fluoro-N-(3-methyl-4-((3-(2-(methylamino)-4-pyrimidinyl)-2-pyridinyl)oxy)phenyl)-5-(trifluoromethyl)benzamide] | < 5 | < 10 | < 10
CNc1nccc(-c2cccnc2Oc2ccc(NC(=O)c3ccc(F)c(C(F)(F)F)c3)cc2C)n1 [Example 1035, 4-fluoro-N-(3-methyl-4-((3-(2-(methylamino)-4-pyrimidinyl)-2-pyridinyl)oxy)phenyl)-3-(trifluoromethyl)benzamide] | < 5 | < 10 | < 10
CNc1nccc(-c2cccnc2Oc2ccc(NC(=O)Nc3ccc(-c4ccccc4)cc3)cc2)n1 [Example 1037, N-(1,1′-biphenyl-4-yl)-N′-(4-((3-(2-(methylamino)-4-pyrimidinyl)-2-pyridinyl)oxy)phenyl)urea] | < 5 | < 10 | < 10
CNc1nccc(-c2cccnc2Oc2ccc(NC(=O)Nc3ccc(OC4CCN(C)CC4)cc3)cc2)n1 [Example 1038, N-(4-((3-(2-(methylamino)-4-pyrimidinyl)-2-pyridinyl)oxy)phenyl)-N′-(4-((1-methyl-4-piperidinyl)oxy)phenyl)urea] | < 5 | < 10 | < 10
CNc1nccc(-c2cccnc2Oc2ccc(NC(=O)Nc3ccc(OCCCn4ccnc4)c(F)c3)cc2)n1 [Example 1040, N-(3-fluoro-4-((3-(1H-imidazol-1-yl)propyl)oxy)phenyl)-N′-(4-((3-(2-(methylamino)-4-pyrimidinyl)-2-pyridinyl)oxy)phenyl)urea] | < 5 | < 10 | < 10
